# Results taken from PubChem BioAssay AID1671190 (National Center for Advancing Translational Sciences (NCATS), 2021).
# Protein sequences, listed by entry. Tags and fused reporters are not part of them.
# UniProt P18054, whole entry, looked up: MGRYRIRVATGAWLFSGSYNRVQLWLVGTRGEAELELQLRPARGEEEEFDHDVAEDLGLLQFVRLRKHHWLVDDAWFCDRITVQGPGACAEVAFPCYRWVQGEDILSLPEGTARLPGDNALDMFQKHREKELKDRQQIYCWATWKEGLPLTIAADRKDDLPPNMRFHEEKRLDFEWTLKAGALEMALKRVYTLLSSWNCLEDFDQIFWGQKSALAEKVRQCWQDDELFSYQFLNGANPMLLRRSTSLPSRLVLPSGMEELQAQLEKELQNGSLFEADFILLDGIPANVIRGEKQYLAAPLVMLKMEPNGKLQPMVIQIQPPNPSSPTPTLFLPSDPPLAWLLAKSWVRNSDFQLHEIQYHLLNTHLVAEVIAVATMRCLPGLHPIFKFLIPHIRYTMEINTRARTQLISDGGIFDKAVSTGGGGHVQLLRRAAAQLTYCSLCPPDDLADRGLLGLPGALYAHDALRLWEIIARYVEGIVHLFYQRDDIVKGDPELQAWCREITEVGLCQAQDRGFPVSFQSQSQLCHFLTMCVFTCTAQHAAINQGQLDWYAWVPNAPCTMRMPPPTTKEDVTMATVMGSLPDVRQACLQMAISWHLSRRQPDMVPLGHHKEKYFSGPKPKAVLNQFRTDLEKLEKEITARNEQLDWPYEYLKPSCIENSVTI
# The whole screen tested about 580,000 compounds, of which about 6,100 (1.1%) were called active. Inconclusive means that the source gave no clear call. Such entries were picked first, then a sample of the others. The call rests on the fitted dose curve; in most records, active means well fitted inhibition curve with a large enough effect; inconclusive means small, poorly fitted or top-dose-only effect, or another doubt; inactive means no such curve, though single readings can be large or run the other way. A potency beside an inconclusive call is a rough fit, not a confirmed value.
# Target: Polyunsaturated fatty acid lipoxygenase ALOX12 (Homo sapiens) (UniProt P18054)
# Test: Primary qHTS assay for inhibitors of human arachidonate 12S-lipoxygenase (ALOX12): Round 2
# Conditions: purified 12hLO, xylenol orange hydroperoxide absorbance; activity change, negative = inhibition: at 108 µM (top of the series) unless noted
# Method in brief: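 Purified human 12hLO (150 nM final) in 25 mM Hepes, 0.01% Triton X-100, pH 7.0 was preincubated 15 min at room temperature with compound. Then 40 uM arachidonic acid was added, 30 min. Hydroperoxide was read by Fe-XO absorbance ratio 573/405 nm.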
# On the % scale 0 is the no-effect control and ±100 the full control effect; potency means the concentration at half of the fitted maximal effect.
SMILES,Potency,"activity change, negative = inhibition"
COc1ccc2c(c1)CCCN2C(=O)c1cc2cc(Cl)ccc2nc1C,active: 44.7 µM,
COc1cc2c(cc1OC)C(C(=O)Nc1ccc3c(c1)OCCO3)C1c3ccccc3CCN1C2=O (configuration not stated),inactive,
COc1ncccc1CNC(=O)Nc1ccc(Br)c(C)c1,"inconclusive: 112 µM [inhibitor, single point]",
CCOc1ccc(CNC(=O)Cn2c(=O)c3cccn3c3ccccc32)cc1,"inconclusive: 112 µM [inhibitor, single point]",
O=C(O)C1=CCC=CC1C(=O)O (configuration not stated),"inconclusive: 79.4 µM [inhibitor, partial curve, poor fit]",
COc1ccc(NC(=O)C2(n3cnnn3)CCCCC2)cc1OC,inactive,
COc1ccc(-n2cnnc2SCC(=O)NC2CC2)cc1,inactive,
C/C=C/Cn1c(SCCCCC)nc2c1c(=O)[nH]c(=O)n2C,"inconclusive: 100 µM [inhibitor, partial curve, poor fit]",
COc1ccc(CNS(=O)(=O)c2ccc(C)cc2)cc1,"inconclusive: 44.7 µM [inhibitor, partial curve, poor fit]",
CC(CC(=O)Nc1ccc(Cl)c(S(=O)(=O)N2CCOCC2)c1)c1ccccc1 (configuration not stated),"inconclusive: 3.98 µM [inhibitor, full curve, poor fit]",
COc1ccc(CN2CCCC3(CC(c4ccccc4)=NO3)C2)cc1 (configuration not stated),,inactive: -16.6% [at 6.33 µM]
COCC(=O)n1nc(NCc2ccc(Cl)cc2Cl)nc1NCc1ccc(Cl)cc1Cl,"inconclusive: 28.2 µM [inhibitor, partial curve, poor fit]",
O=c1cc(-c2ccc(O)cc2)oc2c(C3O[C@H](CO)[C@@H](O)[C@H](O)[C@H]3O)c(O)cc(O)c12 (some centres not stated),"inconclusive: 7.08 µM [inhibitor, full curve]",
O=C(c1cccc(COc2cccc3ccccc23)c1)N1CCCC1,"inconclusive: 100 µM [inhibitor, single point]",
CCC(C)C(NC(=O)C(C)NC(=O)CNC(=O)OCc1ccccc1)C(N)=O (configuration not stated),inactive,
CN(C)c1cc(Nc2ccc(O)cc2)c([N+](=O)[O-])c2nonc12,inactive,
Cc1cc(C)c(NC(=O)Cn2c(=O)n(Cc3ccc(C(=O)NCc4ccco4)cc3)c(=O)c3sccc32)c(C)c1,"inconclusive: 126 µM [inhibitor, single point]",
Cc1ccc(S(=O)(=O)c2nc(-c3cccc(Cl)c3)oc2NCc2ccccc2)cc1,"inconclusive: 126 µM [inhibitor, partial curve, poor fit]",
CCN1CCN(c2nnc(-c3ccc(F)cc3)c3ccccc23)CC1,"inconclusive: 79.4 µM [inhibitor, single point]",
COc1ccc(NS(=O)(=O)c2cc(NC(=O)c3cnccn3)ccc2N2CCCC2)cc1,inactive,
O=C(CCCc1ccccc1)NCCc1noc(-c2cccnc2)n1,inactive,
CCOc1ccc(CCN2C(=O)C(=O)N([C@@H](CC(C)C)CN3CCC[C@H]3CN3C(=O)C(=O)NC[C@@H]3CC(C)C)C[C@@H]2CC(C)C)cc1,"inconclusive: 100 µM [inhibitor, single point]",
CC1(C)CN=c2s/c(=C\c3ccc(Cl)cc3)c(=O)n2C1,"inconclusive: 44.7 µM [inhibitor, partial curve, poor fit]",

SMILES,Potency,"activity change, negative = inhibition"
Cn1cc(C(=O)NCc2nnc3n2C(C(=O)NC2CC2)CC3)cn1 (configuration not stated),"inconclusive: 11.2 µM [inhibitor, full curve, poor fit]",
COc1ccc(N2CCN(C(=O)Cc3ccc(Cl)cc3)CC2)cc1,"inconclusive: 89.1 µM [inhibitor, single point]",
COc1ccc(OCc2cc(C(=O)N3CCCC(CO)C3)no2)c2ccccc12 (configuration not stated),"inconclusive: 100 µM [inhibitor, single point]",
O=C(c1cnccn1)N1CCC2(CCCN(Cc3ccncc3)C2)CC1,"inconclusive: 31.6 µM [inhibitor, single point]",
Cc1ccc(S(=O)(=O)c2nc(-c3ccc(F)cc3)oc2N2CCOCC2)cc1,"inconclusive: 35.5 µM [inhibitor, single point]",
O=C(Nc1ccc(C2=NCCN2)cc1)c1ccc(C(=O)Nc2ccc(C3=NCCN3)cc2)c([N+](=O)[O-])c1,"inconclusive: 50.1 µM [inhibitor, partial curve, poor fit]",
CN(C)CCNC(=O)c1ccc2c(c1)N(Cc1c(F)cccc1Cl)C(=O)c1ccccc1S2,"inconclusive: 35.5 µM [inhibitor, partial curve]",
CC(C)NC(=O)C[C@@H]1c2nc(NC(=O)c3ccc(C(C)(C)C)cc3)sc2C[C@@H]2[C@](C)(CO)[C@H](O)CC[C@]21C,"inconclusive: 20 µM [inhibitor, full curve, poor fit]",
COc1ccc(CN(C)CC(=O)Nc2cc(C)nn2-c2ccccc2C)cc1,inactive,
CN(Cc1ccccc1)C(=O)C[C@@H]1CCNC[C@@H]1Cc1cc(-c2ccc(C(C)(C)C)cc2)on1,active: 25.1 µM,
Cn1c(=O)n(Cc2ccccc2)c(=O)c2c1nc1n2CCN1Cc1ccco1,inactive,
COc1ccc(OC)c(NC(=O)c2nc3nc(C)cc(C(F)F)n3n2)c1,inactive,
[O-][n+]1ccccc1C(O)CSc1ccccc1 (configuration not stated),"inconclusive: 44.7 µM [inhibitor, partial curve, poor fit]",
O=C(NC(=S)N1CCN(c2ccc([N+](=O)[O-])cc2)CC1)c1ccc(F)cc1,"inconclusive: 10 µM [inhibitor, full curve]",
CC1=C(c2ccc(C)c(C)c2)S(=O)(=O)NC1=NC(C)C12CC3CC(CC(C3)C1)C2 (configuration not stated),inactive,
CC(C)C(C)(C#N)NC(=O)CN(C)Cc1ccccc1 (configuration not stated),inactive,
NS(=O)(=O)c1ccc(CCNC(=O)c2cc(-c3cccs3)nc3ccccc23)cc1,"inconclusive: 39.8 µM [inhibitor, partial curve, poor fit]",
CCC(C)c1ccc(O)c(/C=N/O)c1 (configuration not stated),"inconclusive: 28.2 µM [inhibitor, single point]",
COc1ccc(NS(=O)(=O)c2cccc(C(=O)NCC3(N4CCCCC4)CCCCC3)c2)cc1,"inconclusive: 5.01 µM [inhibitor, full curve, poor fit]",
COc1nc2cc(C)c(C)cc2nc1C(=O)Nc1cccc(Cl)c1,"inconclusive: 39.8 µM [inhibitor, partial curve, poor fit]",
c1ccc(CNc2ccnc(-c3ccc4c(c3)OCO4)n2)cc1,"inconclusive: 6.31 µM [inhibitor, full curve, poor fit]",
Cc1cccc(C(=O)Nc2cccc(C(=O)OCc3cc(=O)n4ccsc4n3)c2)c1,,inconclusive: -31.6% [inhibitor]
CCNC(=O)C1CCCN(C(=O)Cc2cccs2)CC1 (configuration not stated),active: 50.1 µM,

SMILES,Potency,"activity change, negative = inhibition"
COc1ccc(OCC(=O)N2CCCC(Nc3ccc(C)c(C)c3)C2)cc1 (configuration not stated),"inconclusive: 141 µM [inhibitor, partial curve, poor fit]",
CC(=O)Nc1ccc(Nc2cc(C(C)C)nc3c(-c4ccccc4)cnn23)cc1,inactive,
O=C(CCl)N(Cc1cc(=O)[nH]c2ccccc12)c1ccccc1,"inconclusive: 31.6 µM [inhibitor, partial curve]",
COc1cccc(-c2ccc(COc3ccc4c(cnn4CCC(=O)O)c3)cc2)c1F,inactive,
CCN(CC)S(=O)(=O)c1cccc(C(=O)N/N=C/c2cc(OC)c(O)c(OC)c2)c1,inactive,
CCCn1c(=N)n(CC(O)c2ccco2)c2ccccc21 (configuration not stated),inactive,
COc1ccc(/C=C/c2nc(C#N)c(N(C)C)o2)cc1OC,inactive,
Cc1cccc(N2CC(C(=O)O)CC2=O)c1C (configuration not stated),"inconclusive: 56.2 µM [inhibitor, partial curve, poor fit]",
CC(C)(C)NC(=O)NC(=O)CN1CCN(C(c2ccccc2)c2ccccc2)CC1,"inconclusive: 126 µM [inhibitor, single point]",
Cc1c(-c2ccccc2)[o+]c2ccccc2c1C#Cc1ccccc1,"inconclusive: 7.94 µM [inhibitor, partial curve, poor fit]",
CCCCn1nc(NC(=O)CCC)c2cc3cc(OC)ccc3nc21,inactive,
CCN(CC)C(=S)Nc1c(C)cccc1C,"inconclusive: 0.224 µM [inhibitor, full curve, poor fit]",
COC(=O)c1ccc2c(=O)n(CCCCCC(=O)NCc3ccc4c(c3)OCO4)c(=O)[nH]c2c1,"inconclusive: 56.2 µM [inhibitor, single point]",
C=CCN1C(=O)C(CC(=O)Nc2ccccc2)N(Cc2ccccn2)C1=S (configuration not stated),"inconclusive: 89.1 µM [inhibitor, partial curve, poor fit]",
CSc1cccc(NC(=O)c2n[nH]c(=O)c3ccccc23)c1,inactive,
O=C(N/N=C1/C(=O)c2cccc3cccc1c23)c1ccc(Cl)cc1,inactive,
COc1ccc(C(=O)N2CCC(n3cc(-c4nc(C(C)C)no4)nn3)CC2)cc1F,"inconclusive: 20 µM [inhibitor, full curve, poor fit]",
CCOCCCNC(=S)N1CCN(CC)CC1,"inconclusive: 2.24 µM [inhibitor, full curve]",
COc1ccc(OC)c(CNC(=O)c2cccc(NC(=O)N3CCSc4ncccc43)c2)c1,"inconclusive: 126 µM [inhibitor, partial curve, poor fit]",
O=C(CN1CCC(NC(=O)Nc2ccccc2)CC1)Nc1ccccc1F,inactive,
NS(=O)(=O)c1ccc(NC(=O)c2ccc(S(=O)(=O)N3CCc4ccccc43)cc2)cc1,"inconclusive: 50.1 µM [inhibitor, partial curve, poor fit]",

# Already shown: entries from further up.
SMILES,Potency,"activity change, negative = inhibition"
COc1ccc(OC)c(CNC(=O)c2cccc(NC(=O)N3CCSc4ncccc43)c2)c1,"inconclusive: 126 µM [inhibitor, partial curve, poor fit]",
O=C(CN1CCC(NC(=O)Nc2ccccc2)CC1)Nc1ccccc1F,inactive,
NS(=O)(=O)c1ccc(NC(=O)c2ccc(S(=O)(=O)N3CCc4ccccc43)cc2)cc1,"inconclusive: 50.1 µM [inhibitor, partial curve, poor fit]",
